{"sequences": {"note": "Amino acid sequences for entries named in this document (tags omitted).", "UniProt Q7TQJ8": "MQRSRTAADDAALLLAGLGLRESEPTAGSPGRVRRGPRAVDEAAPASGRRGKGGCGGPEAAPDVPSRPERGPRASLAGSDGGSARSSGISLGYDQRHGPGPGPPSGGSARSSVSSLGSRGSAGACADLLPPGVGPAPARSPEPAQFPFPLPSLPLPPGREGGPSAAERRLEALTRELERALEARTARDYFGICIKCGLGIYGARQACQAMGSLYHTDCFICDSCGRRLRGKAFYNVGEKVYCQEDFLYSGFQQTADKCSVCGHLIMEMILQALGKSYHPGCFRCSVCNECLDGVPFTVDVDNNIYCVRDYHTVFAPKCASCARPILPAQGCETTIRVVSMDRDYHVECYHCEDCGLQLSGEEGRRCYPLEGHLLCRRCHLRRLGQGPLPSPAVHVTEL", "UniProt Q80TS7": "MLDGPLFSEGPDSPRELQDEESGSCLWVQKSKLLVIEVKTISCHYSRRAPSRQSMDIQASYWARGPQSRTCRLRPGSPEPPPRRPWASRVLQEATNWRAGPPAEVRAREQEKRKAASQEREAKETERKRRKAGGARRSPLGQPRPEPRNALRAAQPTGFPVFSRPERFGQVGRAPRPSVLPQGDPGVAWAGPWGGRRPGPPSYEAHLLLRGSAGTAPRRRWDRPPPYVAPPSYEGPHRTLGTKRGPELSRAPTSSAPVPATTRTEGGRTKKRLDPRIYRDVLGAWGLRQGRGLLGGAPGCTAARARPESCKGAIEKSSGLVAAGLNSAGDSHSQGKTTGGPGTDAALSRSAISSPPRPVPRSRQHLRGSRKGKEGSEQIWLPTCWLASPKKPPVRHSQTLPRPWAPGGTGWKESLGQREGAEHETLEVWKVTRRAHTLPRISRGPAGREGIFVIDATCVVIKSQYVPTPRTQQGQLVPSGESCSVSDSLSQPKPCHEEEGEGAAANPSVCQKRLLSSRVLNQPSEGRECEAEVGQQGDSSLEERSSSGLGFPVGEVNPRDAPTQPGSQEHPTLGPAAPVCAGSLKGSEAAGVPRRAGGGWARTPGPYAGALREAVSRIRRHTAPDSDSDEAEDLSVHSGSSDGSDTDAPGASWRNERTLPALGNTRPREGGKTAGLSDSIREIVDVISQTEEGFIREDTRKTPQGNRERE"}, "source": "paper PMC3869763", "molecules": {"B1": {"name": "myc-tagged growth arrest and DNA-damage-inducible 45 alpha (Gadd45a) (protein, UniProt P48316 1-165)", "chain": "MTLEEFSAAEQKTERMDTVGDALEEVLSKARSQRTITVGVYEAAKLLNVDPDNVVLCLLAADEDDDRDVALQIHFTLIRAFCCENDINILRVSNPGRLAELLLLENDAGPAESGGAAQTPDLHCVLVTNPHSSQWKDPALSQLICFCRESRYMDQWVPVINLPER"}}, "experiment_in_all_cases": "co-IP; HEK293 cells co-transfected with two tagged constructs; immunoprecipitation with anti-flag, anti-ha or anti-myc antibody, Western blot; irrelevant expression constructs as controls", "key": {"[1]": {"target": "T1, myc-tagged growth arrest and DNA-damage-inducible 45 alpha (Gadd45a) (UniProt P48316)", "T1 sequence": "B1 chain"}, "[2]": {"target": "myc-tagged Wt1-interacting protein (Wtip) (UniProt Q7TQJ8)"}, "[3]": {"target": "ha-tagged dendrin (mouse) (UniProt Q80TS7)"}, "[4]": {"target": "flag-tagged dendrin (mouse) (UniProt Q80TS7)"}}, "note": "Results are given in words; binding and its absence hold for the method and conditions named. Binding seen in cells or lysates may run through a third protein. Some binding calls cover weakened binding; strength is not graded here. For some of these results: Where a sequence is shown, tags or fusion partners need not be part of it."}
{"molecule": "flag-tagged dendrin (from UniProt Q80TS7 1-710)", "values": [{"measurement": "binding", "setting": "[1]", "result": "binds"}]}
{"molecule": "ha-tagged dendrin (from UniProt Q80TS7 1-710)", "values": [{"measurement": "binding", "setting": "[2]", "result": "binds"}]}
{"molecule": "myc-tagged Wt1-interacting protein (Wtip) (from UniProt Q7TQJ8 1-398)", "values": [{"measurement": "binding", "setting": "[3]", "result": "binds"}]}
{"molecule": "B1", "values": [{"measurement": "binding", "setting": "[4]", "result": "binds"}]}
